Source: doi:10.1101/282822
These are yes or no findings as the source states them, for the method shown. Binding seen in cells or lysates may run through a third protein. A result given as binding can be weak or reduced; the word gives no strength.

Protein sequences, listed by entry. Tags and fused reporters are not part of them. Lines headed by an entry give the natural chain unless they say otherwise; changes in a name come on top.
UniProt Q99941, whole entry, stated change not applied: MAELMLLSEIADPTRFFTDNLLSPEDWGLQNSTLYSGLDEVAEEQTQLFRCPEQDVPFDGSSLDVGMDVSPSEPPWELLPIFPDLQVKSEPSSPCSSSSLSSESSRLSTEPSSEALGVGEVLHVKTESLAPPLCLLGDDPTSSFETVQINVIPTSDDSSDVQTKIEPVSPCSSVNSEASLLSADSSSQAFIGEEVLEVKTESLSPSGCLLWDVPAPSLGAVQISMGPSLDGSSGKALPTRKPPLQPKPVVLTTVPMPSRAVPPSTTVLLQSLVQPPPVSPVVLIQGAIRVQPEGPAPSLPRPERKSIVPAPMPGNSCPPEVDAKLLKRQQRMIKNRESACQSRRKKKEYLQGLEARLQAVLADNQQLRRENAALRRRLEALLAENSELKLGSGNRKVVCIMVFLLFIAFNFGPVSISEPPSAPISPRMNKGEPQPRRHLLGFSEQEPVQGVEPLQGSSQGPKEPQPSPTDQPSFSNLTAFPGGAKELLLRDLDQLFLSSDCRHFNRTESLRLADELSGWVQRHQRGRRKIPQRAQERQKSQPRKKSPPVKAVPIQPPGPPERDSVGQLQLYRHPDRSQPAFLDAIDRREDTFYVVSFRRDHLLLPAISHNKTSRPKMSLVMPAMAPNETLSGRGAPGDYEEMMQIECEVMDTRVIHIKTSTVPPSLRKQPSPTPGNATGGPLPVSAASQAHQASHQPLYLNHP

Biological target: HA-tagged ATF6β (UniProt Q99941)
Assay: co-IP

**Q.** “ROP18 kinase dead (D409A mutant), Toxoplasma gondii rhoptry protein 18 (from UniProt Q2PAY2) (enzyme)” was tested. Which binding did it give?
**A.** binds
